According to article PMC9975678:
These are yes or no findings as the source states them, for the method shown. Some binding calls cover weakened binding; strength is not graded here.

Sequences of proteins named here, by UniProt entry; tags and fusion partners are left off. Residues count along the entry.
UniProt O00629, residues 70-485: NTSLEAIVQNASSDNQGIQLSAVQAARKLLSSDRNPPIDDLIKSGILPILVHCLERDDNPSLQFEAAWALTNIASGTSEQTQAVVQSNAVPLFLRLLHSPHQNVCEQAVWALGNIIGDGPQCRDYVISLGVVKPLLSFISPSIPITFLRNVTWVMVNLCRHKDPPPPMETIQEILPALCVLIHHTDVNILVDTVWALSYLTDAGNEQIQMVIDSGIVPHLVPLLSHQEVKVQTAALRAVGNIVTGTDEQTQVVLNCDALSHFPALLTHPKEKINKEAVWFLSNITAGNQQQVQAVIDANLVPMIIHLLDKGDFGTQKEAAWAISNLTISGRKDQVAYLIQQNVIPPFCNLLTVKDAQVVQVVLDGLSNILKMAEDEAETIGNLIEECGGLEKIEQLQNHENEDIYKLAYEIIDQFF
UniProt Q12888, residues 1665-1686: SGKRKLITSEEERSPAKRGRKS

Molecular target: ARM-repeat domain of human importin-α3 (residues 70–485) (human) (UniProt O00629)
Assay: crystal structure; X-ray, 1.9 Å; purified importin-α3–53BP1 NLS complex (0.58 mM) with 0.71 mM Nup153C in 10 mM Tris–HCl pH 7.5, 150 mM NaCl, 2 mM 2-mercaptoethanol; hanging drop at 20 °C, 0.2 M LiNO3, 25% PEG3350; both purified

In the case of “53BP1 (TP53-binding protein 1) bipartite nuclear localization signal (human 53BP1 residues 1665–1686) (from UniProt Q12888 1665-1686) (peptide)”, the binding is reported as “binds”.
